Laboratory results published in PubChem BioAssay AID651814 (National Center for Advancing Translational Sciences (NCATS), 2012).
Where “and” joins values, the source holds several entries; their conditions need not be identical. Equal entries are not always repeated. Screen size: about 2,100 compounds; about 590 (28%) were called active. This list was built around the results that the source calls inconclusive (neither active nor inactive); the mix of calls is not that of the screen. Calls follow the shape of the dose curve; as a rule, active = well fitted inhibition curve with a large enough effect; inconclusive = small, poorly fitted or top-dose-only effect; inactive = flat fitted curve, though single readings scatter. Potencies of inconclusive entries are doubtful fits and often do not repeat.

By UniProt entry, the sequences of proteins in these tests, tags left out. Where a name states a change or a piece, a line headed by the entry shows the natural chain unless it says otherwise.
UniProt Q8IUX4: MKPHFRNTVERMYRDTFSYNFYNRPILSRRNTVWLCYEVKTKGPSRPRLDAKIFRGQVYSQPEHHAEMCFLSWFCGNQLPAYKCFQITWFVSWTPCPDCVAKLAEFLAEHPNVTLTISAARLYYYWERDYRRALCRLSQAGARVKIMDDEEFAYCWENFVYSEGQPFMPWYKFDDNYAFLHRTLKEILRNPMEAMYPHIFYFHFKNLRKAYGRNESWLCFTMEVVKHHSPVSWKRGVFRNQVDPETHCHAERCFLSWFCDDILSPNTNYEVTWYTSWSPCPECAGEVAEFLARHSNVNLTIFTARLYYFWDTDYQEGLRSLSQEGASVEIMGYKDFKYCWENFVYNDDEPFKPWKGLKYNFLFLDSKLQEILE

What follows are molecules tested against DNA dC->dU-editing enzyme APOBEC-3F (Homo sapiens) (UniProt Q8IUX4) (assay: qHTS for inhibitors of Vif-A3F interactions: Cherry picks). Conditions: HeLa A3F-eYFP + Vif (tagged APOBEC3F with the HIV-1 protein that degrades it), eYFP fluorescence, 24 h.
In short: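 HeLa cells stably expressing A3F-eYFP plus Vif, cultured overnight, then exposed to compounds at several concentrations for 24 h at 37 deg C. Reduced Vif-driven degradation read as rising eYFP fluorescence (488 nm ex/500-530 nm em) by laser-scanning cytometry; MG132 as positive control.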
Also: nearly all actives have a fitted effect of over 70% in size.
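For max response in this document: % of control where 0% means no effect; active compounds raise eYFP fluorescence by blocking Vif-driven A3F loss.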
Potency is read from the fitted curve at half-maximal effect.

| Structure (SMILES) | Potency | max response |
| --- | --- | --- |
| N#CC1=C(N)Oc2cc(N)ccc2C1c1ccc(F)cc1F (stereo unspecified) | active: 18.4 µM | – |
| Cc1nc(C)c(C(=O)OCC(=O)Nc2ccccc2SCC#N)s1 | active: 15.8 µM | – |
| CCOc1ccc(-c2cc(C(F)(F)F)c(C#N)c(SCC(=O)Nc3ccccc3)n2)cc1 | inconclusive: 25.9 µM [inhibitor, partial curve] | – |
| CCOc1ccccc1C1CC(c2cccs2)=NN1S(C)(=O)=O (stereo unspecified) | – | inactive: -22.3% |
| CCOc1cccc(-n2nnnc2-c2ccc(OC)cc2)c1 | inconclusive: 2.8 µM [inhibitor, partial curve] | – |
| CN1/C(=C\C=C(/C#N)C(=O)Nc2ccccc2F)C(C)(C)c2ccccc21 | active: 20.6 µM | – |
| Cc1cc(OCC(=O)Nc2nnc(C3CC3)s2)ccc1Cl | – | inactive: 2.35% |
| CC(O)CN(CC(C)O)c1ccc2c(c1)Cc1cc([N+](=O)[O-])ccc1-2 (stereo unspecified) | active: 3.66 µM | – |
| Cc1ccc(N=C2NC(=O)CC(C(=O)Nc3ccc4c(c3)OCO4)S2)cc1 (stereo unspecified) | – | inactive: -22.7% |
| CCOc1cc(/C=C2/SC(=S)N(CC3CCCO3)C2=O)ccc1O (stereo unspecified) | inconclusive: 29.1 µM [inhibitor, single point] | – |
| CC(C)(C)NCC(=Cc1ccccc1)C(=O)c1ccccc1 | – | inactive: 10% |
| C=CCn1c(SCc2c(C)noc2C)nc2cc(C(=O)O)ccc2c1=O | inconclusive: 4.98 µM [inhibitor, full curve] | – |
| Cc1ccc(-c2cc(NC=O)c3ncc(-c4cccc(C(=O)N(C)C)c4)n3c2)cc1 | inconclusive: 15.8 µM [inhibitor, partial curve] | – |
| Cc1ccc(C)c(N2CCN(C(=O)c3cccn4c(=O)c5sccc5nc34)CC2)c1 | – | inactive: -29.7% |
| Cc1ccc(NC2=C(Cl)C(=O)N(C3CCCCC3)C2=O)cc1 | – | inactive: -3.54% |
| COc1cc(S(=O)(=O)Nc2ccccc2N2CCCCC2)ccc1NC(C)=O | inconclusive: 7.04 µM [inhibitor, partial curve] | – |
| O=C(c1ccccc1)C(CN1CCCCC1)c1ccccc1 (stereo unspecified) | inconclusive: 25 µM [inhibitor, single point] | – |
| O=[N+]([O-])/C=C\c1ccc(N2CCCC2)c(F)c1 | inconclusive: 25.9 µM [inhibitor, single point] | – |
| Cn1cc(C2=C(c3ccc(Cl)cc3Cl)C(=O)NC2=O)c2ccccc21 | active: 2.91 µM and active: 14.6 µM | – |
| CS(=O)(=O)N(CC(=O)N1CCN(Cc2ccccc2)CC1)c1ccccc1F | – | inactive: 0.272% |
| CC(=O)c1c(C)[nH]c(C(=O)Nc2ccc(Cl)cc2F)c1C | – | inactive: -17.7% |
| COc1cc(C(=O)NCCOc2cc(C)cc(C)c2)c(Br)c(OC)c1OC | – | inactive: -22.9% |
| Cc1cccc(CSc2nc(-c3cccs3)ccc2C#N)c1 | inconclusive: 20.6 µM [inhibitor, single point] | – |
| COc1ccc(-c2cc(NC=O)c3ncc(-c4ccc(OC)c(OC)c4)n3c2)cc1OC | active: 7.04 µM | – |

Copied from above (5 entries):

| Structure (SMILES) | Potency | max response |
| --- | --- | --- |
| CN1/C(=C\C=C(/C#N)C(=O)Nc2ccccc2F)C(C)(C)c2ccccc21 | active: 20.6 µM | – |
| Cc1cc(OCC(=O)Nc2nnc(C3CC3)s2)ccc1Cl | – | inactive: 2.35% |
| CC(O)CN(CC(C)O)c1ccc2c(c1)Cc1cc([N+](=O)[O-])ccc1-2 (stereo unspecified) | active: 3.66 µM | – |
| Cc1ccc(N=C2NC(=O)CC(C(=O)Nc3ccc4c(c3)OCO4)S2)cc1 (stereo unspecified) | – | inactive: -22.7% |
| CCOc1cc(/C=C2/SC(=S)N(CC3CCCO3)C2=O)ccc1O (stereo unspecified) | inconclusive: 29.1 µM [inhibitor, single point] | – |

Next part:

| Structure (SMILES) | Potency | max response |
| --- | --- | --- |
| Cc1ccc(CNC(=O)C2CC(c3cc(C(F)(F)F)cc(C(F)(F)F)c3)=NO2)o1 (stereo unspecified) | inconclusive: 11.2 µM [inhibitor, partial curve] | – |
| COc1ccc(S(=O)(=O)Nc2cccc(-c3ccc4nncn4n3)c2)cc1 | inconclusive: 2.5 µM [inhibitor, full curve] | – |
| CC(=O)Nc1cccc(-c2ccnc3c2CC(C)(C(=O)NCc2ccccc2)O3)c1 (stereo unspecified) | inconclusive: 1.25 µM [inhibitor, partial curve, poor fit] | – |
| CC(/C=N/NC(=O)c1cc(-c2ccc(C)s2)[nH]n1)=C\c1ccccc1 | inconclusive: 6.27 µM [inhibitor, partial curve] | – |
| CC(=O)Nc1ccc(NC(=O)C/C(C)=N/NC(N)=S)cc1 | – | inactive: 0.646% |
| CC(C)n1cc(/C=C2\NC(=O)N(c3cccc(Cl)c3)C2=O)c2ccccc21 | inconclusive: 17.7 µM [inhibitor, single point] | – |
| Cc1ccc(CN(C(=O)c2ccccc2F)c2ccccn2)o1 | – | inactive: -5.38% |
| Cc1ccc(C(=O)CCC(=O)OCC(=O)Nc2ccccc2SCC#N)cc1 | – | inactive: -8.08% |
| CN1C(=O)c2cccc(NCCCN3C(=O)c4ccccc4C3=O)c2C1=O | inconclusive: 29.1 µM [inhibitor, single point] | – |
| CCN(CC)C(=O)c1ccc(/C=C/c2c[nH]c3ccccc23)[n+](C)c1 | inconclusive: 20.6 µM [inhibitor, partial curve] | – |
| O=C(CN1C(=O)S/C(=C\c2cc(Cl)c(O)c(Cl)c2)C1=O)Nc1ccccc1 | inconclusive: 29.1 µM [inhibitor, single point] | – |
| CCC(C)[C@H](NC(=O)N1CC(=O)Nc2ccccc21)C(=O)Nc1ccccc1C (stereo partly specified) | inconclusive: 15.8 µM [inhibitor, single point] | – |
| Cc1ccc(NC(=O)/C=C/c2ccc([N+](=O)[O-])s2)c(C)c1 | active: 5.17 µM | – |
| O=C(CC1CC2CCC1C2)Nc1nc(-c2ccccn2)cs1 (stereo unspecified) | – | inactive: 0.305% |
| Cc1cc(C)nc(Nc2nc(C(N)Cc3ccccc3)cs2)n1 (stereo unspecified) | inconclusive: 25 µM [inhibitor, single point] | – |
| COc1cc2c(cc1OC)C(C)N(C(=O)c1cc(C)on1)CC2 (stereo unspecified) | inconclusive: 0.886 µM [inhibitor, full curve] | – |
| CCN(CC)S(=O)(=O)c1cc([N+](=O)[O-])ccc1N=Nc1c(O)[nH]c2ccccc12 | active: 16.4 µM | – |
| CN1CCN(c2ccc([N+](=O)[O-])cc2C(=O)c2ccc(Br)cc2)CC1 | inconclusive: 4.98 µM [inhibitor, partial curve] | – |
| CC1CC(C)(C)Nc2ccc(OC(=O)c3ccco3)cc21 (stereo unspecified) | inconclusive: 20.6 µM [inhibitor, single point] | – |
| N#C/C(=C/c1ccc(N2CCCCCC2)o1)c1ccc(Cl)cc1 | active: 3.66 µM | – |
| N#Cc1c(C(F)(F)F)cc(-c2ccco2)nc1SCc1ccccn1 | active: 10.3 µM | – |
| O=CNc1ccc2c3c(cccc13)-c1ccccc1-2 | active: 14 µM | – |
| CCN(CC)c1ccc(/C=N/NC(=O)c2ccco2)cc1 | inconclusive: 1.25 µM [inhibitor, full curve] | – |
| C/C(CC(=O)NCc1ccco1)=N\NC(=O)COc1ccc(Cl)cc1Cl | inconclusive: 9.94 µM [inhibitor, partial curve] | – |

| Structure (SMILES) | Potency | max response |
| --- | --- | --- |
| COc1ccc(NC(=O)C2(C)Cc3c(-c4cccc(NC(C)=O)c4)ccnc3O2)cc1 (stereo unspecified) | inconclusive: 2.23 µM [inhibitor, full curve] | – |
| CCOc1ccccc1C(=O)Nc1c(C(=O)Nc2ccc(F)cc2)oc2ccccc12 | inconclusive: 1.16 µM [inhibitor, full curve, poor fit] | – |
| COc1ccc(C(=O)N/N=C/c2ccccc2OC(=O)c2ccccc2)cc1 | inconclusive: 4.44 µM [inhibitor, partial curve] | – |
| COc1ccc(NC(=O)C2Cc3c(-c4cccc(NC(C)=O)c4)ccnc3O2)cn1 (stereo unspecified) | inconclusive: 3.96 µM [inhibitor, full curve] | – |
| CSc1nc2ccccc2cc1/C=C(\C#N)c1cccc(C)c1 | inconclusive: 19.8 µM [inhibitor, single point] | – |
| COc1cc(OC)c(/C=C2\SC(=O)N(CC(=O)Nc3ccccc3F)C2=O)c(OC)c1 | inconclusive: 3.96 µM [inhibitor, full curve, poor fit] | – |
| CCOc1cc(C)nc(NCc2ccccc2)n1 | – | inactive: -21.9% |
| Cc1ccc2[nH]c3c(c2c1)CN(C(=O)CN1CC(C)OC(C)C1)CC3 (stereo unspecified) | inconclusive: 12.5 µM [inhibitor, single point] | – |
| COc1cc(/C=N/Nc2ccc(Cl)nn2)cc(OC)c1O | – | inactive: 2.03% |
| Cc1ccc(CNC(=O)Cn2cc(C(=O)c3ccc(Cl)cc3)c(=O)c3ccc(C)nc32)cc1 | – | inactive: -28.8% |
| O=c1cc(-c2ccccc2)[nH]c2ccccc12 | inconclusive: 1.58 µM [inhibitor, full curve] | – |
| COc1cccc(C2=CC(c3ccccc3)n3nnnc3N2)c1 (stereo unspecified) | inconclusive: 3.14 µM [inhibitor, full curve] | – |
| CC1(C)COC(Cn2c3ccccc3c3ccccc32)O1 (stereo unspecified) | – | inactive: -25.3% |
| Cc1cc(/C=N/NC(=O)c2cc3ccccc3o2)c(C)n1C | – | inactive: -15.8% |
| CCN(CC)c1ccc2cc(-c3nc(-c4ccc(Cl)cc4Cl)cs3)c(=O)oc2c1 | – | inactive: -3.92% |
| CC1=C(C(=O)Nc2cccc(F)c2)C(c2ccsc2)C2=C(CC(C)(C)CC2=O)N1 (stereo unspecified) | inconclusive: 1.98 µM [inhibitor, full curve] | – |
| CCOc1ccc(CNC(=O)c2ccccc2NC(=O)c2nsc3ccccc23)cc1 | inconclusive: 16.4 µM [inhibitor, single point] | – |
| CCCCOc1ccc(/C=C/C2=CC(C)(C)NC(=S)N2)cc1OCC | – | inactive: -3.97% |
| CCCC(=O)NC(c1ccc(OC)cc1)c1c(O)ccc2ccccc12 (stereo unspecified) | – | inactive: -21% |
| NNC(=O)c1cc2sccc2s1 | – | inactive: -9.98% |
| O=[N+]([O-])c1ccc(N/N=C/c2sc(N3CCOCC3)nc2-c2ccccc2)c(S(=O)(=O)Nc2ccccc2Cl)c1 | active: 9.2 µM | – |
| O=C(NCc1cccc(C(F)(F)F)c1)c1cccc2c1C(=O)c1ccc(N3CCC(Cc4ccccc4)CC3)cc1S2(=O)=O | inconclusive: 18.4 µM [inhibitor, single point] | – |
| COc1cc(C2Nc3ccc4ncccc4c3C3=C2C(=O)CCC3)ccc1O (stereo unspecified) | inconclusive: 11.2 µM [inhibitor, partial curve] | – |
